# PubChem BioAssay AID686943 | Drosophila RNAi Screening Center, 2013
# Purpose: 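Knockdowns that increase or decrease active ERK after insulin receptor stimulation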 (primary screen)
# Cells: Drosophila S2R+ haemocyte-like cells expressing YFP-tagged ERK (Rolled)
# Knock-down reagent: long dsRNA against Drosophila genes
# Conditions: insulin stimulation versus unstimulated cells; dose and duration not given
# Detection: 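Per-plate z-scores of phospho-ERK immunostaining normalised to YFP-tagged ERK, measured with and without insulin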
# Scale: replicate 1, z-score of dpERK with insulin and replicate 2, z-score of dpERK with insulin: higher = more active ERK per ERK-YFP after insulin; replicate 1, z-score of dpERK under basal conditions: higher = more basal active ERK per ERK-YFP; replicate 1, z-score of ERK-YFP with insulin: higher = more YFP-tagged ERK signal
# The deposit covers about 23,000 reagents; below is a random part of those that have a named target and a result. 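Extra replicates exist only for a retested subset of genes; insulin dose and duration not given; both raised and lowered dpERK matter.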 Not stated in the record: the amount of reagent, the time to read-out.
target,amplicon,"replicate 1, z-score of dpERK with insulin","replicate 2, z-score of dpERK with insulin","replicate 1, z-score of dpERK under basal conditions","replicate 1, z-score of ERK-YFP with insulin"
CG6426,DRSC06985,0.42,0.84,1.13,-0.07
CG12084,DRSC08247,0.01,0.62,0.98,0.36
LysRS (Lysyl-tRNA synthetase),DRSC17824,1.37,0.45,-0.36,-0.43
for (foraging),DRSC00195,-1.52,-1.52,-0.92,-1.1
for (foraging),DRSC00818,-0.24,-0.45,1.46,-1.49
dgt4 (dim gamma-tubulin 4),DRSC18659,2.38,0.32,1.94,0.08
CG31635,DRSC02273,0.27,-0.04,0.77,-0.15
CG31635,DRSC02274,-3.39,-2.59,-1.22,2.54
CG43446,DRSC13458,1.41,-0.64,-0.27,0.37
Smox (Smad on X),DRSC18716,2.28,1.78,-0.36,-0.7
Obp46a (Odorant-binding protein 46a),DRSC06220,0.12,-0.53,-0.4,0.22
CG31206,DRSC13388,-0.72,0.19,0.35,0.16
Tab2 (TAK1-associated binding protein 2),DRSC07481,0.28,0.58,1.08,0.11
Acsx2 (Acyl-CoA synthetase X2),DRSC14308,-0.26,-0.29,-0.26,-0.24

Part of the list above, reformatted:
| target | amplicon | replicate 1, z-score of dpERK with insulin | replicate 2, z-score of dpERK with insulin | replicate 1, z-score of dpERK under basal conditions | replicate 1, z-score of ERK-YFP with insulin |
| --- | --- | --- | --- | --- | --- |
| Smox (Smad on X) | DRSC18716 | 2.28 | 1.78 | -0.36 | -0.7 |
| Obp46a (Odorant-binding protein 46a) | DRSC06220 | 0.12 | -0.53 | -0.4 | 0.22 |
| CG31206 | DRSC13388 | -0.72 | 0.19 | 0.35 | 0.16 |
| Tab2 (TAK1-associated binding protein 2) | DRSC07481 | 0.28 | 0.58 | 1.08 | 0.11 |

The list goes on.
target,amplicon,"replicate 1, z-score of dpERK with insulin","replicate 2, z-score of dpERK with insulin","replicate 1, z-score of dpERK under basal conditions","replicate 1, z-score of ERK-YFP with insulin"
inc (insomniac),DRSC17954,0.19,1.02,1.13,0.02
inc (insomniac),DRSC18512,0.43,1.03,-0.09,-2.86
pnt (pointed),DRSC17028,-1.56,-5.57,-3.73,-0.2
Cpr76Bd (Cuticular protein 76Bd),DRSC11063,-0.3,-0.18,0.56,-0.03
CG8319,DRSC16407,-0.18,-0.52,-1.1,-0.38
CG17328,DRSC01927,0.61,0.45,1,-0.08
CG17328,DRSC22448,-0.31,-0.63,-0.08,0.57
Hecw (Hecw ubiquitin protein ligase),DRSC18261,0.7,0.5,-0.04,-0.02
Hecw (Hecw ubiquitin protein ligase),DRSC18276,0.49,0.03,-0.68,0.19
mRpS34 (mitochondrial ribosomal protein S34),DRSC09918,1.49,0.43,-0.37,0.66
Cyp1 (Cyclophilin 1),DRSC20234,-0.99,-0.63,1.13,-0.11
CG1077,DRSC12146,1.1,0.09,-0.58,-0.43
puml (pummelig),DRSC06793,1.17,0.11,-0.23,-0.36
Faa (Fumarylacetoacetase),DRSC08451,-0.06,0.41,1.19,0.33
CG1902,DRSC06798,0.7,0.42,-0.54,0.17
vers (versatile),DRSC10715,-0.44,-0.61,0.25,-0.17
CG11828,DRSC14394,0.6,0.02,0.01,0.47
CG11828,DRSC22580,0.22,0.34,-0.47,-0.1
CG3224,DRSC18295,0.33,1.2,0.19,0.37
"Lamtor5 (Late endosomal/lysosomal adaptor, MAPK and MTOR activator 5)",DRSC18491,-1.37,-0.08,-0.24,1.03
CG33189,DRSC21427,1.53,-0.59,-0.83,-1.74
hpRNA:CR18854 (hairpin RNA:CR18854),DRSC02702,-1.79,-1.25,-0.95,-0.57
CG13060,DRSC09943,-0.43,0.4,0.02,-0.17
CG8870,DRSC16452,0.74,0.5,1.14,0.28
Gr28a (Gustatory receptor 28a),DRSC02290,-0.04,1.87,-1.05,-1.75
